Assay results taken from the supplement of paper PMC12282887.
Values are raw readings; no control value is given beside them.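 The top concentration was set near the MIC for antimicrobials, at 500 µM for most other compounds, and up to 1 mM for known inducer-like compounds. Deletion strains started from a tenfold smaller inoculum, and wells growing below 10% of the overall median were treated as non-growing.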 Where a SMILES comes first, the peptide text is derived from it. Bridges are numbered along the chain shown (N, C = ends). [ ]: non-standard residue; d: D form. The star is where a group is joined. Heptanoyl(5-Me) = CCC(C)CCCC(=O)*; Dab = NCC[C@H](N)C(=O)O

System: Escherichia coli BW25113
Test: growth (OD600 area under curve, 8 h) (OD600 x h); higher = more growth
Procedure: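 E. coli BW25113 reporter strains (wild type, ΔmarA, ΔsoxS, Δrob, each carrying one of 8 lux reporter plasmids) were grown in 40 µl LB in 384-well plates at 37°C, 800 rpm, with each compound at 4 two-fold concentrations, in biological duplicates. Growth is the baseline-corrected OD600 area under the curve over 8 h (0-8 h WT, 1-9 h deletion strains).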

C=C[C@H]1CN2CC[C@H]1C[C@H]2[C@H](O)c1ccnc2ccc(OC)cc12 [Quinine]
growth
Conditions	reporter plasmid: EVC	reporter plasmid: acrABp	reporter plasmid: marRABp	reporter plasmid: micFp	reporter plasmid: ompFp	reporter plasmid: robp	reporter plasmid: soxSp	reporter plasmid: tolCp
40.6 µg/ml, genetic background: wild type	3.16	3	3.15	3.08	3.04	3.3	3.01	3.03
40.6 µg/ml, genetic background: ΔmarA	3.06	4.33	3.686	3.36	3.39	3.66	2.88	2.95
40.6 µg/ml, genetic background: Δrob	3.03	2.99	3.4	3.08	2.77	2.99	2.951	3.071
40.6 µg/ml, genetic background: ΔsoxS	3.53	3.459	3.26	3.13	3.14	3.28	3.232	3.37
81.1 µg/ml, genetic background: wild type	2.86	3.17	3.27	3.08	3.14	3.26	2.95	3.21
81.1 µg/ml, genetic background: ΔmarA	2.85	4.24	3.58	3.05	3.2	3.35	2.9	2.89
81.1 µg/ml, genetic background: Δrob	2.86	2.99	3.45	3.08	2.6	2.78	2.79	3.14
81.1 µg/ml, genetic background: ΔsoxS	3.16	3.22	3.39	2.77	2.99	3.19	3.11	3.1
162.2 µg/ml, genetic background: wild type	3.02	3.25	3.24	3.08	3.23	3.23	3.08	3.22
162.2 µg/ml, genetic background: ΔmarA	3.02	4.35	4.01	3.16	3.62	3.78	2.88	2.96
162.2 µg/ml, genetic background: Δrob	2.98	3.015	3.42	3.08	2.52	2.77	2.881	3.09
162.2 µg/ml, genetic background: ΔsoxS	3.41	3.358	3.35	2.77	3.02	3.26	3.21	3.37
324.4 µg/ml, genetic background: wild type	2.71	2.61	2.82	2.85	2.71	2.76	2.78	3.051
324.4 µg/ml, genetic background: ΔmarA	2.95	3.64	2.888	2.92	2.83	3.05	2.5	2.64
324.4 µg/ml, genetic background: Δrob	2.75	2.31	2.98	2.84	2.18	2.33	2.69	2.96
324.4 µg/ml, genetic background: ΔsoxS	3.2	3.01	2.99	2.65	2.61	2.53	2.91	3.14

c1ccc(-c2ccccn2)nc1 [2-2-Bipyridyl]
growth
Conditions	reporter plasmid: EVC	reporter plasmid: acrABp	reporter plasmid: marRABp	reporter plasmid: micFp	reporter plasmid: ompFp	reporter plasmid: robp	reporter plasmid: soxSp	reporter plasmid: tolCp
9.8 µg/ml, genetic background: wild type	2.28	2.6	2.58	2.95	2.49	2.5	2.62	2.8466
9.8 µg/ml, genetic background: ΔmarA	2.61	3.33	2.6	2.52	2.81	2.7	2.24	2.43
9.8 µg/ml, genetic background: Δrob	2.41	2.61	2.65	2.63	2.12	2.22	2.53	2.5
9.8 µg/ml, genetic background: ΔsoxS	2.83	2.58	2.91	2.27	2.2	2.665	2.82	2.57
19.5 µg/ml, genetic background: wild type	1.9	2.21	2.56	2.47	1.9	2.07	2.336	2.34
19.5 µg/ml, genetic background: ΔmarA	2.06	2.82	2.39	2.02	2.41	2.37	1.89	1.96
19.5 µg/ml, genetic background: Δrob	1.87	2.12	2.31	2.15	1.7	1.67	2.034	1.93
19.5 µg/ml, genetic background: ΔsoxS	2.31	2.25	2.57	1.52	1.66	2.25	2.22	2.06
39 µg/ml, genetic background: wild type	0.993	1.65	1.51	1.32	1.15	1.38	1.31	1.44
39 µg/ml, genetic background: ΔmarA	1.3	1.77	1.6	1.32	1.52	1.97	1.43	1.35
39 µg/ml, genetic background: Δrob	0.892	1.35	1.5	0.978	0.798	0.931	1.05	1.05
39 µg/ml, genetic background: ΔsoxS	1.29	1.66	1.62	0.681	0.856	1.35	1.13	1.01
78.1 µg/ml, genetic background: wild type	0.159	0.559	0.742	0.205	0.228	0.331	0.358	0.511
78.1 µg/ml, genetic background: ΔmarA	0.301	0.77	0.317	0.164	0.403	0.443	0.219	0.0822
78.1 µg/ml, genetic background: Δrob	0.216	0.341	0.362	0.207	0.16	0.102	0.185	0.166
78.1 µg/ml, genetic background: ΔsoxS	0.149	0.121	0.379	0.0837	0.0976	0.138	0.0912	0.152

C[C@@H]1O[C@@H]1P(=O)(O)O [Fosfomycin]
growth
Conditions	reporter plasmid: EVC	reporter plasmid: acrABp	reporter plasmid: marRABp	reporter plasmid: micFp	reporter plasmid: ompFp	reporter plasmid: robp	reporter plasmid: soxSp	reporter plasmid: tolCp
0.011 µg/ml, genetic background: wild type	3.04	2.86	3.33	3.12	3.18	3.396	3.223	3.2729
0.011 µg/ml, genetic background: ΔmarA	3.13	4.14	3.73	3.33	3.59	3.82	2.88	2.87
0.011 µg/ml, genetic background: Δrob	2.91	3.23	3.4	3.26	2.83	3.02	3.05	3.182
0.011 µg/ml, genetic background: ΔsoxS	3.29	3.46	3.44	3.04	3.36	3.37	3.38	3.17
0.023 µg/ml, genetic background: wild type	2.946	2.78	3.36	3.13	3.06	3.11	3.07	3.18
0.023 µg/ml, genetic background: ΔmarA	3.11	3.98	3.697	3.31	3.54	3.92	2.98	3.03
0.023 µg/ml, genetic background: Δrob	3.15	3.2	3.42	3.31	2.85	3.1	3.01	3.33
0.023 µg/ml, genetic background: ΔsoxS	3.18	3.52	3.4	2.9	3.36	3.16	3.42	3.23
0.046 µg/ml, genetic background: wild type	2.69	3.09	3.37	3.31	3.55	3.62	3.07	3.31
0.046 µg/ml, genetic background: ΔmarA	3.24	4.12	3.95	3.37	3.81	4.16	3.04	3.05
0.046 µg/ml, genetic background: Δrob	3.13	3.26	3.63	3.36	3.03	3.05	2.87	3.15
0.046 µg/ml, genetic background: ΔsoxS	3.4111	3.5	3.53	3.17	3.45	3.27	3.5	3.26
0.091 µg/ml, genetic background: wild type	2.2	1.39	1.73	2.29	1.63	2.21	2.29	2.82
0.091 µg/ml, genetic background: ΔmarA	2.55	1.91	2.26	2.93	1.89	2.82	2.24	2.55
0.091 µg/ml, genetic background: Δrob	2.77	1.83	2.41	2.71	1.69	1.94	2.32	3
0.091 µg/ml, genetic background: ΔsoxS	3.021	2.15	1.69	2.5	1.67	1.6	2.44	3.065

CCC(C)CCCC(=O)N[C@@H](CCN)C(=O)N[C@H](C(=O)N[C@@H](CCN)C(=O)N[C@H]1CCNC(=O)[C@H]([C@@H](C)O)NC(=O)[C@H](CCN)NC(=O)[C@H](CCN)NC(=O)[C@H](CC(C)C)NC(=O)[C@@H](CC(C)C)NC(=O)[C@H](CCN)NC1=O)[C@@H](C)O (stereo partly drawn) [Colistin] ({Heptanoyl(5-Me)}-[Dab]T[Dab][Dab][Dab][dL]L[Dab][Dab]T; lactam 4-C)
growth
Conditions	reporter plasmid: EVC	reporter plasmid: acrABp	reporter plasmid: marRABp	reporter plasmid: micFp	reporter plasmid: ompFp	reporter plasmid: robp	reporter plasmid: soxSp	reporter plasmid: tolCp
0.048 µg/ml, genetic background: wild type	2.7	3.15	3.413	3.325	3.31	3.49	2.94	3.29
0.048 µg/ml, genetic background: ΔmarA	3.01	4.16	3.743	3.11	3.52	3.74	2.7	2.66
0.048 µg/ml, genetic background: Δrob	2.802	3.09	3.47	3.18	2.85	2.7	2.74	2.99
0.048 µg/ml, genetic background: ΔsoxS	3.29	3.2	3.24	2.84	3.23	3.27	3.15	2.97
0.1 µg/ml, genetic background: wild type	2.67	2.78	3.34	3.04	3.12	3.28	2.89	3.24
0.1 µg/ml, genetic background: ΔmarA	3.01	4.32	3.63	2.81	3.47	3.81	2.74	2.48
0.1 µg/ml, genetic background: Δrob	2.92	3.1475	3.18	2.94	2.69	2.83	2.8	2.99
0.1 µg/ml, genetic background: ΔsoxS	3.15	3.33	3.28	2.95	3.55	3.13	3.18	3.01
0.19 µg/ml, genetic background: wild type	2.59	2.87	3.39	2.45	3.16	3.24	2.73	3.24
0.19 µg/ml, genetic background: ΔmarA	2.01	3.64	2.91	1.56	2.86	3.3	2.12	1.75
0.19 µg/ml, genetic background: Δrob	2.6	2.84	2.77	2.15	2.39	1.95	1.32	2.16
0.19 µg/ml, genetic background: ΔsoxS	2.76	2.82	2.96	2.61	3.34	3.05	3.01	2.78
0.38 µg/ml, genetic background: wild type	1.71	1.53	1.64	0.653	0.577	1.39	1.14	2.4273
0.38 µg/ml, genetic background: ΔmarA	0.000694	0.0209	0.0379	-0.0588	-0.00126	0.00429	0.31	0.0226
0.38 µg/ml, genetic background: Δrob	0.000824	-0.0284	0.311	-0.0566	-0.0953	-0.0308	-0.0151	0.177
0.38 µg/ml, genetic background: ΔsoxS	0.872	0.585	0.43	0.0202	0.464	0.633	0.18	1.16
